Laboratory results taken from publication PMC8456781, “Myosin-X and talin modulate integrin activity at filopodia tips” (Cell Reports, 2021).
These are yes or no findings as the source states them, for the method shown. In cells and extracts the contact can be indirect. Some binding calls cover weakened binding; strength is not graded here.

Protein sequences, listed by entry. Tags and fused reporters are not part of them. Lines headed by an entry give the natural chain unless they say otherwise; changes in a name come on top. Chains listed by the source or under a name are the forms on record and can include a tag or linker.
UniProt Q9HD67: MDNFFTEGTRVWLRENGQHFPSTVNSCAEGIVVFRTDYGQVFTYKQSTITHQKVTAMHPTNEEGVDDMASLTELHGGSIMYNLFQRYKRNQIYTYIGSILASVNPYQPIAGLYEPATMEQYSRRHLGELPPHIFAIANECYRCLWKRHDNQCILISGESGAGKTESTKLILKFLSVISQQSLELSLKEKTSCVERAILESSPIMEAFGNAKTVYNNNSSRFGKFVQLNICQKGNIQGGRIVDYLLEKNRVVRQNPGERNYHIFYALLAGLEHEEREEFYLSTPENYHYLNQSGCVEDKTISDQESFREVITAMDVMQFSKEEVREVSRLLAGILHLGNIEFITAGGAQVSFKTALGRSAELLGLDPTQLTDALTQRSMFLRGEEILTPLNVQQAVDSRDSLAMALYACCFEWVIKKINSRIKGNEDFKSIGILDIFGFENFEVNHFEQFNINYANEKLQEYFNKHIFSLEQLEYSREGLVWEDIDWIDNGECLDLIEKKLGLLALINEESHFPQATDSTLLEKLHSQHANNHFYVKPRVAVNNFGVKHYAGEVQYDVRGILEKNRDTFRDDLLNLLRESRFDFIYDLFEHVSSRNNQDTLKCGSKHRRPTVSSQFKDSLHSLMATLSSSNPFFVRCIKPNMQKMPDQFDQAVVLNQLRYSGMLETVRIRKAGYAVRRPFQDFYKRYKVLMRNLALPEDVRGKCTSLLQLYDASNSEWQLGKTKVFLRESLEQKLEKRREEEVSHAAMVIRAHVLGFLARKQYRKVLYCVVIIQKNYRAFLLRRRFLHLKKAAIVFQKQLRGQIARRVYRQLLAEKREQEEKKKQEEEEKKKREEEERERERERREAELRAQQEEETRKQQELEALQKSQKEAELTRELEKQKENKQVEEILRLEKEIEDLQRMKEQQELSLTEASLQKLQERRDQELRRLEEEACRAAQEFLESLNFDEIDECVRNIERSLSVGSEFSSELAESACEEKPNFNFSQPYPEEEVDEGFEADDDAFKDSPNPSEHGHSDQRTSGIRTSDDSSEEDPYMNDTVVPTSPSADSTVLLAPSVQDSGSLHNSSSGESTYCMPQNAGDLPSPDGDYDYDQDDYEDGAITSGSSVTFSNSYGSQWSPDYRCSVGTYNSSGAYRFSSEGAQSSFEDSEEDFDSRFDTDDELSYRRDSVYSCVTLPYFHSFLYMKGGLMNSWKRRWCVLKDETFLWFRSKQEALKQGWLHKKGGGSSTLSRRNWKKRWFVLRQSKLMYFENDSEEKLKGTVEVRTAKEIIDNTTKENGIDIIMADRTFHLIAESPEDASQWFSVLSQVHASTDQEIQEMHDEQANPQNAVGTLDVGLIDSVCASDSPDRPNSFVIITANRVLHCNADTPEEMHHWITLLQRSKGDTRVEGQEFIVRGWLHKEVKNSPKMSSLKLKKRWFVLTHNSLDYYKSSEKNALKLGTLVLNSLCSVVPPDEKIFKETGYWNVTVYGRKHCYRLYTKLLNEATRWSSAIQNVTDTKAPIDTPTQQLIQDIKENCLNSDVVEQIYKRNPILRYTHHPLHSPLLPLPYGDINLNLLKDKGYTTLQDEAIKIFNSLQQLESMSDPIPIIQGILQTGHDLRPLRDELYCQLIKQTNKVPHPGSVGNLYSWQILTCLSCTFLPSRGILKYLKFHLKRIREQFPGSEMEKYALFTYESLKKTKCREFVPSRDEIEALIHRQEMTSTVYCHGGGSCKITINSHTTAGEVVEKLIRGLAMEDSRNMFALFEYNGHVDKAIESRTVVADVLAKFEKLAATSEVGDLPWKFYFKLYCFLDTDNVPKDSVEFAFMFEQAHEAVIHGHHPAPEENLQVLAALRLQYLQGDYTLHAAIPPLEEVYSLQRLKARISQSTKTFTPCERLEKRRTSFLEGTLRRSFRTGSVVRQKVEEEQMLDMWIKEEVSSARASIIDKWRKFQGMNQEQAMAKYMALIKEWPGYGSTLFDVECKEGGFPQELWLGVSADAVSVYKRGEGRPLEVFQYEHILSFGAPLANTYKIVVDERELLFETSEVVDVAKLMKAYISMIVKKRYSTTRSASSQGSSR
EGFP-MYO10-FERM^ITGBD (MYO10-FERM mutated on the predicted integrin binding site) (Q9HD67, form named): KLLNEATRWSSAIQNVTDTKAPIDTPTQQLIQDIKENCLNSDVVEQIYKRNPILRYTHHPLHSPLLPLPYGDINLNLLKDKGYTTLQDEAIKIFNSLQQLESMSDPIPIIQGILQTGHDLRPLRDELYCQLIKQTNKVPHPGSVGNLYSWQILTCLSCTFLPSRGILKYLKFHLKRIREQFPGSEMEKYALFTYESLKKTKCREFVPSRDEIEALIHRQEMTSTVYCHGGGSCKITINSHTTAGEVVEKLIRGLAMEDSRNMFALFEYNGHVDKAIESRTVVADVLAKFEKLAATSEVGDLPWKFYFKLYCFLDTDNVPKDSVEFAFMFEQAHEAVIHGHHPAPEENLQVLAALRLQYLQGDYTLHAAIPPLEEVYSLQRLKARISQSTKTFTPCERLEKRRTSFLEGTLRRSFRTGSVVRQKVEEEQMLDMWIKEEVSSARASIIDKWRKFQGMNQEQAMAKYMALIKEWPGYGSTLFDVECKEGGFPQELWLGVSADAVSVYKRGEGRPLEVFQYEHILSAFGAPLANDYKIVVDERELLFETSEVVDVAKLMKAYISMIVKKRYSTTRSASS
UniProt Q96CW1: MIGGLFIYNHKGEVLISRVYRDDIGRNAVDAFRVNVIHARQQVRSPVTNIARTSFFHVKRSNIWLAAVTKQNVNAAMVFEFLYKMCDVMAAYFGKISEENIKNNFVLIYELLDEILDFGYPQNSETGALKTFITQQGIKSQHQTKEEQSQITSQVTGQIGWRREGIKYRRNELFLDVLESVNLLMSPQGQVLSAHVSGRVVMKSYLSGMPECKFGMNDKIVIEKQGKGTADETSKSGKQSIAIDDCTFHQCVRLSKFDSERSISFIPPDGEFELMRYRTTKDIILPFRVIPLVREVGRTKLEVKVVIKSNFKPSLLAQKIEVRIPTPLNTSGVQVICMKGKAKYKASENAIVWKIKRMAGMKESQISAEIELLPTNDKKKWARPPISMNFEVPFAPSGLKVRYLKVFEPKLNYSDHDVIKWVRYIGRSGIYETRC

How the values were obtained:
[1] = biological target: T1, conserved region of the α2-integrin tail, peptide; experiment: pull-down; biotinylated integrin tail peptides on streptavidin Dynabeads, U2-OS cell lysate (40 mM HEPES, 75 mM NaCl, 2 mM EDTA, 1% NP-40), 2 h at 4°C, western blot; only the target purified
T1 sequence (peptide, biotin (biotinylated for the pull-downs; position not stated)): WKLGFFKRKYEKM

[2] = biological target: wild-type β1-integrin tail peptide; experiment: as above

binding [1]	binding [2]	Substance
binds	–	EGFP-MYO10-FERM^ITGBD (MYO10-FERM mutated on the predicted integrin binding site) (from UniProt Q9HD67 1480-2053) (domain or fragment)
binds	–	EGFP-tagged MYO10-FERM domain wild-type (EGFP-MYO10^FERM) (from UniProt Q9HD67 1480-2053) (domain or fragment)
binds	no binding	clathrin adaptor AP2μ (from UniProt Q96CW1 1-435)
binds	–	myosin-X (MYO10), endogenous full-length (from UniProt Q9HD67 1-2058)
